Reference: patent publication US20070021495A1, “SULFONAMIDES AS SELECTIVE ESTROGEN RECEPTOR” (priority 2005, published 2007)
At least one structure is not confirmed: it was looked up by name or label, or the drawing left a doubt.

System: U2-OS cells stably expressing either ERα or ERβ
Assay: Endogenous gene expression (cystatin D, GREB1 mRNA, quantitative PCR) in U2-OS cells stably expressing ERα or ERβ

With `C[C@]12CC[C@@H]3c4ccc(O)cc4CC[C@H]3[C@@H]1CC[C@@H]2O` [Estradiol, reference compound] the “Activation of GREB1 gene” value was “through both ER alpha and ER beta” and the “Activation of cystatin D gene” value was “activated only through ERbeta”.
